Measured values as given in PMC12681849.
These are yes or no findings as the source states them, for the method shown. In cells and extracts the contact can be indirect. Some results given as binding are weak or reduced against the parent protein; the word gives no strength. Sequences can lack the tags named with a protein.

Amino acid sequences for entries named in this document (tags omitted).
UniProt P62330: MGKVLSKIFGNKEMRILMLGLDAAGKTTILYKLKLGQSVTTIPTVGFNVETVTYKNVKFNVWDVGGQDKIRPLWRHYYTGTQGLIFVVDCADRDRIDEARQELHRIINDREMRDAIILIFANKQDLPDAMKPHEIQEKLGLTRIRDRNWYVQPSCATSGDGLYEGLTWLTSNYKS

Target: T1, GST-GGA3 GAT (141-327aa) (UniProt Q9NZ52)
T1 sequence: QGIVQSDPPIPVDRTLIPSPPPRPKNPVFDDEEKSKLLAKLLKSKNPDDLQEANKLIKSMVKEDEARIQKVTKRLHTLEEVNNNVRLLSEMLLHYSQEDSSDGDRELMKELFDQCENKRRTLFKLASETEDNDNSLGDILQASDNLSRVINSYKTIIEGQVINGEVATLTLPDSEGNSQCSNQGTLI
Experiment: pull-down; GST-GGA3 immobilised on glutathione-sepharose beads, incubated with lysate of serum-starved, LPA-stimulated HepG2 cells at 4 °C for 1 hour; Arf6 in the pellets detected by Western blotting; only the target purified

binding: binds
Substance: ADP-ribosylation factor 6 (Arf6), GTP-bound (from UniProt P62330 1-175)
